Data taken from publication PMC10605901, “Clinical Cases and the Molecular Profiling of a Novel Childhood Encephalopathy-Causing GNAO1 Mutation P170R” (Cells, 2023).
No constants are given. Whether binding was seen depends on the method and setting. In cells and extracts the contact can be indirect. Some results given as binding are weak or reduced against the parent protein; the word gives no strength.

By UniProt entry, the sequences of proteins in these tests, tags left out. Where a name states a change or a piece, a line headed by the entry shows the natural chain unless it says otherwise.
UniProt P09471: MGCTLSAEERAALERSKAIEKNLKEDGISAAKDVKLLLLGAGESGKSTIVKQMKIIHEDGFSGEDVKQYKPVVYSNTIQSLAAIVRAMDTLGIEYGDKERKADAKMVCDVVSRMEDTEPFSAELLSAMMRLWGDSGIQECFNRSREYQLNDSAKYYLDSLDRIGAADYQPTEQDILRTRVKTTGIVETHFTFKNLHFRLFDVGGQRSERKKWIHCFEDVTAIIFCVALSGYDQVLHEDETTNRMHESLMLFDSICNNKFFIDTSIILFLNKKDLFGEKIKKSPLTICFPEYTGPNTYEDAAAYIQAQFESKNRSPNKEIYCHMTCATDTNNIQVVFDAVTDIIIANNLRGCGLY

Tests used:
[1] = biological target: Gαo[Q205L]^Gly92-GFP (human) (UniProt P09471); test: co-IP; N2a cells co-transfected with Gαo-GFP constructs and mRFP-Gβ1/mRFP-Gγ3 (1:1:1) or HA-RGS19 (1:1); cleared lysates (20 mM Tris-HCl pH 8.0, 1% Triton X-100, 10% glycerol in PBS) incubated with GST-tagged anti-GFP nanobody, then Glutathione Sepharose 4B beads overnight at 4 °C; Western blot for GFP, mRFP and/or HA; quantification normalized to the precipitated Gαo-GFP
[2] = biological target: Gαo^Gly92-GFP wild-type (Gαo internally tagged with GFP at Gly92) (human) (UniProt P09471); test: as above

binding [1]: binds
binding [2]: binds
B1: 3xHA-RGS19 (natural protein, UniProt P49795 1-217, looked up)
chain: MPTPHEAEKQITGPEEADRPPSMSSHDTASPAAPSRNPCCLCWCCCCSCSWNQERRRAWQASRESKLQPLPSCEVCATPSPEEVQSWAQSFDKLMHSPAGRSVFRAFLRTEYSEENMLFWLACEELKAEANQHVVDEKARLIYEDYVSILSPKEVSLDSRVREGINKKMQEPSAHTFDDAQLQIYTLMHRDSYPRFLSSPTYRALLLQGPSQSSSEA
notes: RGS19 (regulator of G-protein signaling 19); also called 3×HA-RGS19; RGS19 (tagged with 3 × HA); source: N2a cells, transfected, in lysate
